Reference: publication PMC5386388
Results are given in words; binding and its absence hold for the method and conditions named. For part of these data: Binding seen in cells or lysates may run through a third protein. For part of these data: Where a sequence is shown, tags or fusion partners need not be part of it. Some binding calls cover weakened binding; strength is not graded here.

Sequences of proteins named here, by UniProt entry; tags and fusion partners are left off. A change or cut given only in a name is not applied to a line headed by its entry. Residues count along the entry.
UniProt P26599: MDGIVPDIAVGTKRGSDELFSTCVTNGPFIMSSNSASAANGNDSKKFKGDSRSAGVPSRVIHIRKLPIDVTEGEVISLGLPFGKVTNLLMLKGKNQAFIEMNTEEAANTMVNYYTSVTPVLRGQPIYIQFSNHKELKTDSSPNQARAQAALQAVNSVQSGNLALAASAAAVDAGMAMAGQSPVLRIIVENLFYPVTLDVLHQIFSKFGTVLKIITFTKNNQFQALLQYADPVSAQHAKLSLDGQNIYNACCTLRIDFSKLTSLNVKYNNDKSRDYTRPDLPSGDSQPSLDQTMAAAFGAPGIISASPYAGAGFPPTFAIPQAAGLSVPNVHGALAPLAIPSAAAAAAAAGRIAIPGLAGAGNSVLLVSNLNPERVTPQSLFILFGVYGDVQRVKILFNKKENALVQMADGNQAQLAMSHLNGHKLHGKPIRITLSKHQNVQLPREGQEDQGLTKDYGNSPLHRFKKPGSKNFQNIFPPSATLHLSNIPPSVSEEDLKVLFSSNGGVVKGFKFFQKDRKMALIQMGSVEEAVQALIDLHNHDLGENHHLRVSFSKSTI
UniProt Q9UNE7: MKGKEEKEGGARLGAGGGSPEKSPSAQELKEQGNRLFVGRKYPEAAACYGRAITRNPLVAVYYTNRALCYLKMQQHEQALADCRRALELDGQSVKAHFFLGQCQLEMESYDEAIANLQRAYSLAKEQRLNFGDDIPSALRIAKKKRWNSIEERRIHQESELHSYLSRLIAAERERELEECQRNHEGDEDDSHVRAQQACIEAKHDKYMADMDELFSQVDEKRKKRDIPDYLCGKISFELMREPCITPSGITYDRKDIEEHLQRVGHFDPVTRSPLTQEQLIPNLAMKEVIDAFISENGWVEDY
HA-CHIP-ΔTPR (128–303 amino acids): residues 128-303 of Q9UNE7

Columns and labels:
[1] = biological target: polypyrimidine tract-binding protein (PTB) (UniProt P26599); experiment: two-hybrid; pairwise test in yeast with three reporters (beta-galactosidase, ADE2, URA3); empty pGBKT7 and pGADT7 as negative control
FLAG-DDIAS (human) = biological target: T1, FLAG-DDIAS (human) (UniProt Q8IXT1); experiment: co-IP; HEK293T cells co-transfected; lysates in RIPA buffer; IP with anti-FLAG M2 affinity gel (Fig. 1g), anti-HA agarose (Fig. 1h, 2e) or anti-c-Myc agarose (Fig. 2d); some panels with siCHIP or siHSP70 knock-down and MG132
T1 sequence: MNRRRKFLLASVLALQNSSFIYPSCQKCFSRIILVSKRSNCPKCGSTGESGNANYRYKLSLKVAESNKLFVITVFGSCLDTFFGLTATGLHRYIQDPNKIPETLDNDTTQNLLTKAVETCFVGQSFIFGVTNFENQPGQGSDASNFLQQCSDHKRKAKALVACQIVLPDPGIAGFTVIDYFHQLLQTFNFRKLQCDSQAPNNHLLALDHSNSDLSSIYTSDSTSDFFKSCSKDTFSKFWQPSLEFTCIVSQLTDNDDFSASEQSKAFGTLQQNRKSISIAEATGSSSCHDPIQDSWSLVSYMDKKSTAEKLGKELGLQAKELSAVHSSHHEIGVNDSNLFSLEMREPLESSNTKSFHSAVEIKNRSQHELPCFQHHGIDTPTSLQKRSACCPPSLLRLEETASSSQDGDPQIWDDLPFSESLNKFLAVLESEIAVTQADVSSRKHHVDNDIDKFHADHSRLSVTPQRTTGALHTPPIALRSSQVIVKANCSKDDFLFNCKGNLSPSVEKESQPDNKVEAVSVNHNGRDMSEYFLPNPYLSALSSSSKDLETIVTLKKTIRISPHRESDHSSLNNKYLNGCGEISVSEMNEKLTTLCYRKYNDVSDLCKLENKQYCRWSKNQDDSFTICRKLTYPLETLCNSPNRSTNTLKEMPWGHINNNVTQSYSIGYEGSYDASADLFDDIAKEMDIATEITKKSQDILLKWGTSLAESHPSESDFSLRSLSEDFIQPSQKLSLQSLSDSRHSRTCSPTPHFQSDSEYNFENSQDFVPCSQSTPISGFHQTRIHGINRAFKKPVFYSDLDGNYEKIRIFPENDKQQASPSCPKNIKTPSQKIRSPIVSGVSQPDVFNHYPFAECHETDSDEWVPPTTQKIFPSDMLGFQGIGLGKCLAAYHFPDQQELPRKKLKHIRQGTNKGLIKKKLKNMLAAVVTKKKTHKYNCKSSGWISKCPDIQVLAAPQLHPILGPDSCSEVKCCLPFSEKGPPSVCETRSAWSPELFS

HA-CHIP (human) = HA-CHIP (human) (UniProt Q9UNE7); experiment: as above

polypyrimidine tract-binding protein (PTB) (from UniProt P26599 1-557)
binding [1]: binds

HA-CHIP-ΔTPR (128–303 amino acids) (from UniProt Q9UNE7-1 128-303) (domain or fragment)
binding (FLAG-DDIAS (human)): no binding

B1: FLAG-DDIAS domain M (aa 401–600) (domain or fragment, UniProt Q8IXT1 401-600)
chain: TASSSQDGDPQIWDDLPFSESLNKFLAVLESEIAVTQADVSSRKHHVDNDIDKFHADHSRLSVTPQRTTGALHTPPIALRSSQVIVKANCSKDDFLFNCKGNLSPSVEKESQPDNKVEAVSVNHNGRDMSEYFLPNPYLSALSSSSKDLETIVTLKKTIRISPHRESDHSSLNNKYLNGCGEISVSEMNEKLTTLCYRKY
binding (HA-CHIP (human)): no binding
